The values below come from PMC10130170.

The chains behind the UniProt entries cited, without tags or fusion partners.
UniProt Q9Y297: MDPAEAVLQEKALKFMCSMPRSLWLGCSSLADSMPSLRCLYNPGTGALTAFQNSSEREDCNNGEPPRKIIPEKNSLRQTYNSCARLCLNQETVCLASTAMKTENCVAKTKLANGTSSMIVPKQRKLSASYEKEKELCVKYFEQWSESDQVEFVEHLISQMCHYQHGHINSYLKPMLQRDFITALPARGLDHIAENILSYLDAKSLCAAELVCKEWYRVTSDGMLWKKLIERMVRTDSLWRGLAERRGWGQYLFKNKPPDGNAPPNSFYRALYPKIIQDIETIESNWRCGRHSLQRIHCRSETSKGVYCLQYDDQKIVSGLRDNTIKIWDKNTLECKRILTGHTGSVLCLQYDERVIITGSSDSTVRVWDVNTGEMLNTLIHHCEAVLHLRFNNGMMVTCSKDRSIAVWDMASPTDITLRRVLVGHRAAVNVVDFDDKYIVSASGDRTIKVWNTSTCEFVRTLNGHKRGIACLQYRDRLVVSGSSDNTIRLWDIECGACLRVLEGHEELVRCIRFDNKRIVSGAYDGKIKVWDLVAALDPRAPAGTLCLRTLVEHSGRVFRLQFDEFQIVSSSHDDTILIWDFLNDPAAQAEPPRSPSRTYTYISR
UniProt P49841: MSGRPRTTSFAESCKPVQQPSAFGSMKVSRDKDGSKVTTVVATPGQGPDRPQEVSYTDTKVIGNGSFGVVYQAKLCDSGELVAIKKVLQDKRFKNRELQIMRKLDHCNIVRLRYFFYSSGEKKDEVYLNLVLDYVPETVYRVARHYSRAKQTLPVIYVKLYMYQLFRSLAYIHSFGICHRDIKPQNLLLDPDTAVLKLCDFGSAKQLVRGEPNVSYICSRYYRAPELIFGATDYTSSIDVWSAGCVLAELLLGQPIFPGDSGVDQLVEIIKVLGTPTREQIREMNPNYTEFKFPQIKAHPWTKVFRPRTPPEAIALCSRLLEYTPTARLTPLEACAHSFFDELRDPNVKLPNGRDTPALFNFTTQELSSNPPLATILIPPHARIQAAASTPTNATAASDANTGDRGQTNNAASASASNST

Results are given in words; binding and its absence hold for the method and conditions named. Binding seen in cells or lysates may run through a third protein. Some entries that bind do so weakly or less than the wild type.

In one experiment the target is Flag-β-TRCP1 (UniProt Q9Y297). Kind of experiment: co-IP; HEK293T cells overexpressing the Flag-tagged bait, treated with NaB for 6 h or with NaB in combination with LiCl; CHAPS lysis buffer; lysates incubated with anti-Flag M2 beads for 2-3 h; NRF2 detected by Western blot. A general note: In western blotting, separated proteins are transferred to a membrane and probed.

A further experiment deals with Flag-GSK3β (UniProt P49841). The experiment is described as above.

B1: nuclear factor erythroid 2-related factor 2 (NRF2) (protein, UniProt Q16236 1-605)
chain: MMDLELPPPGLPSQQDMDLIDILWRQDIDLGVSREVFDFSQRRKEYELEKQKKLEKERQEQLQKEQEKAFFAQLQLDEETGEFLPIQPAQHIQSETSGSANYSQVAHIPKSDALYFDDCMQLLAQTFPFVDDNEVSSATFQSLVPDIPGHIESPVFIATNQAQSPETSVAQVAPVDLDGMQQDIEQVWEELLSIPELQCLNIENDKLVETTMVPSPEAKLTEVDNYHFYSSIPSMEKEVGNCSPHFLNAFEDSFSSILSTEDPNQLTVNSLNSDATVNTDFGDEFYSAFIAEPSISNSMPSPATLSHSLSELLNGPIDVSDLSLCKAFNQNHPESTAEFNDSDSGISLNTSPSVASPEHSVESSSYGDTLLGLSDSEVEELDSAPGSVKQNGPKTPVHSSGDMVQPLSPSQGQSTHVHDAQCENTPEKELPVSPGHRKTPFTKDKHSSRLEAHLTRDELRAKALHIPFPVEKIINLPVVDFNEMMSKEQFNEAQLALIRDIRRRGKNKVAAQNCRKRKLENIVELEQDLDHLKDEKEKLLKEKGENDKSLHLLKKQLSTLYLEVFSMLRDEDGKPYSPSEYSLQQTRDGNVFLVPKSKKPDVKKN
Consider B1, for which the binding result in the experiment with Flag-β-TRCP1 and with Flag-GSK3β was “binds” each time.
